The other results are listed elsewhere or left out. These are further read-outs of the screen, such as a control signal, another cell line or another target. No call is given for them. Compounds called inactive in the main read-out are mostly missing here. The note in brackets gives the kind of curve behind each potency; many fits are weak.
Assay: qHTS Assay to Find Inhibitors of Chronic Active B-Cell Receptor Signaling
Conditions: ABC-DLBCL IkBa-CBG/CBR reporter, luminescence ratio (green luciferase fused to IkBa over red control in TMD8 lymphoma cells), 4 h
How it was run: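 Doxycycline induced both beetle luciferases in TMD8 lymphoma cells; IKK-driven degradation limits the IkappaBalpha-fused green signal, while red luminescence normalises for cell number and nonspecific effects. Compounds tested up to 46 uM, 4 hrs.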

[1] = measured here: CBR red luminescence, cell number
[2] = measured here: IkBa-CBG green luminescence

Row | SMILES | AC50 [1] | AC50 [2]
1 | COc1ccc(-c2ccc(/C=N/NC(=O)Cc3nnc(N)s3)o2)cc1Cl | 25.1 µM [rising, single point] | 
2 | CC(C)[C@H](NC(=O)N1CCn2c1nc1ccccc12)C(=O)N[C@H](C(=O)O)c1ccccc1 | 2.24 µM [falling, full curve, poor fit] | 
3 | O=C(COc1ccccc1C(=O)O)Nc1nc2ccc([N+](=O)[O-])cc2s1 | 0.708 µM [falling, full curve] | 
4 | CC(=O)c1ccc(C(=O)Nc2ccc3c(c2)C(=O)NC3=O)cc1 | 0.316 µM [falling, partial curve, poor fit] | 
5 | COc1ccc(CNC(=O)N2CCN(c3ccc(F)cc3)CC2)cc1Cl | 3.55 µM [falling, single point] | 
6 | O=C(CCN1C(=O)/C(=C/c2ccccc2)SC1=S)NNC(=O)c1cccnc1 | 32.6 µM [falling, single point] | 
7 | C=CCC[C@@H](Cc1ccc(F)cc1)C(=O)OC[C@@H](Cc1c[nH]c2ccccc12)NC(=O)[C@@H](CC=C)CC(=O)N[C@H](CO)Cc1ccccc1 | 20.6 µM [falling, partial curve, poor fit] | 
8 | O=C(c1nnsc1S(=O)c1ccc(Cl)cc1)N1CCOCC1 (configuration not stated) | 2.82 µM [falling, full curve, poor fit] | 
9 | C=CCn1c(SCC(=O)N2CCc3ccccc3C2)nc2sc(CC)cc2c1=O | 18.4 µM [falling, partial curve] | 
10 | Cc1cc(OCC(=O)NC2CCCCC2)ccc1Cl | 29.1 µM [falling, single point] | 
11 | COc1cccc(NC(=O)[C@@H]2CCCN2S(=O)(=O)c2cccc3cccnc23)c1 | 4.11 µM [rising, single point] | 
12 | C=CCC(CC(O)COCCC)C(=O)NNC(=S)Nc1ccccc1 (configuration not stated) | 17.8 µM [falling, partial curve] | 4.47 µM [falling, full curve]
13 | CCOC(=O)C1=C(C)OC(N)=C(C#N)C1c1cc2c(cc1Br)OCO2 (configuration not stated) | 20 µM [falling, single point] | 
14 | CCOC(=O)CSc1nnc(NC(=O)c2cc([N+](=O)[O-])cc([N+](=O)[O-])c2)s1 | 0.651 µM [falling, full curve] | 
15 | C[C@H](CO)N1C[C@H](C)[C@@H](CN(C)C(=O)Nc2ccccc2)Oc2c(NC(=O)C3CCCCC3)cccc2C1=O | 29.1 µM [rising, single point] | 
16 | O=C(CSc1nc(-c2ccccc2)cn1-c1ccccc1F)Nc1ccc(F)cc1 | 3.16 µM [falling, partial curve] | 
17 | O=C1c2ccccc2C(=O)c2c1cccc2N(CCO)CCO | 31.6 µM [rising, single point] | 
18 | COC(=O)c1ccccc1NC(=O)Nc1ccc2c(c1)OCO2 | 13 µM [falling, partial curve] | 
19 | S=C1N(c2ccccc2)C(c2ccccc2)N2CCCN12 (configuration not stated) | 0.164 µM [falling, full curve, poor fit] | 
20 | COc1ccc2c(c1)c(=O)oc1cc3occ(C(C)(C)C)c3cc12 | 29.1 µM [rising, single point] | 16.4 µM [falling, partial curve, poor fit]

Shown as comma-separated lines: entries from further up.
Row,SMILES,AC50 [1],AC50 [2]
5,COc1ccc(CNC(=O)N2CCN(c3ccc(F)cc3)CC2)cc1Cl,"3.55 µM [falling, single point]",
10,Cc1cc(OCC(=O)NC2CCCCC2)ccc1Cl,"29.1 µM [falling, single point]",

Next part:

Row | SMILES | AC50 [1] | AC50 [2]
21 | Cc1ccc2cccc(OCC(=O)N3CCc4ccccc43)c2n1 | 10 µM [falling, partial curve, poor fit] | 
22 | CC(=O)N1CCC(N(CCN2CCOCC2)C(=S)Nc2ccc(C)cc2C)CC1 | 12.6 µM [rising, single point] | 
23 | Cc1cc(C)c(C(=O)CSc2nnc(N)s2)cc1C | 10 µM [rising, partial curve, poor fit] | 
24 | COc1ccccc1NC(=O)Nc1sccc1-c1nc2ccccc2s1 | 0.355 µM [falling, full curve] | 
25 | COc1cccc(-c2nc3c(c(SCC(=O)N4CCOCC4)n2)Cc2c(CO)cnc(C)c2O3)c1 | 1.12 µM [rising, partial curve, poor fit] | 
26 | Cc1ccc(Nc2nc(-c3ccncc3)cs2)cc1 | 0.126 µM [rising, full curve, poor fit] | 
27 | Cc1ccccc1C(=O)OC(C)CN1CCN(C)CC1 (configuration not stated) | 3.16 µM [rising, single point] | 
28 | COC(=O)c1ccccc1N1C(=O)C2C(C1=O)[C@H]1C=C[C@@H]2C1 (some centres not stated) | 29.1 µM [rising, single point] | 
29 | Cc1cccc(C)c1NC(=O)CN1CCN(CCCC(c2ccc(F)cc2)c2ccc(F)cc2)CC1 | 29.1 µM [falling, single point] | 
30 | CC(C)N(C(=O)[C@H]1C[C@H](CC(=O)NCCc2ccccn2)C(=O)N2CCc3c([nH]c4cc(CCC(=O)N(C)C)ccc34)[C@]12C)C(C)C | 23.1 µM [rising, single point] | 
31 | O=C(Nc1cccc(Cl)c1)C1CCCN(S(=O)(=O)c2ccc(F)cc2)C1 (configuration not stated) | 29.1 µM [falling, single point] | 
32 | NC(=S)N/N=C/c1coc2c(ccc3ccccc32)c1=O | 0.00461 µM [rising, full curve, poor fit] | 0.0206 µM [rising, full curve, poor fit]
33 | O=C(NCc1cccnc1)NC(=O)c1ccc(Cl)cc1 | 0.501 µM [rising, partial curve, poor fit] | 
34 | Cc1ccn2c(=O)nc(SCC(=O)NCCc3ccccc3)nc2c1 | 0.411 µM [rising, full curve, poor fit] | 
35 | O=C(N=C1SC2CS(=O)(=O)CC2N1c1ccc(F)c(Cl)c1)C1CC1 (configuration not stated) | 4.47 µM [falling, full curve, poor fit] | 
36 | O=C(C#Cc1ccccc1)Nc1cccc(F)c1 | 10 µM [falling, partial curve, poor fit] | 
37 | O=C(COC(=O)c1ccc2c(c1)OCO2)Nc1cccc(F)c1 | 4.61 µM [rising, partial curve] | 
38 | Cc1ccc(S(=O)(=O)N2CCN(CCc3ccncc3)CC2)cc1 | 23.1 µM [rising, partial curve, poor fit] | 
39 | CC(=O)c1cc(F)ccc1OCC(=O)N1CCCc2ccccc21 | 28.2 µM [falling, single point] | 
